The values that follow come from PubChem BioAssay AID662 (National Center for Advancing Translational Sciences (NCATS), 2007).

The other results are listed elsewhere or left out. These are further read-outs of the screen, such as a control signal, another cell line or another target. No call is given for them. Most of these compounds were active or inconclusive in the main read-out, so they are no random draw. The note in brackets gives the kind of curve behind each potency; many fits are weak.

The nature of the test: Cell signaling CRE-BLA (Fsk stim). Particulars: CHO CRE-bla reporter (cAMP response element driving beta-lactamase), forskolin EC10, beta-lactamase ratio; measured here: 460 nm blue channel. Put shortly:
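Titrated compounds plus EC10 NKH 477 on CHO CRE-bla cells, 3 h, 37 °C. CCF4, 2 h RT. Ratio 460/530 nm → AC50.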
Consider `COC(=O)[C@H](CCSC)NC(=O)N1CCN(c2cccc(C(F)(F)F)c2)CC1`, for which the AC50 is 3.98 µM [falling, partial curve].

For `CC1(C)OC(=O)C(=CNC(Cc2c[nH]c3ccccc23)C(=O)O)C(=O)O1` (centres undefined), the AC50 is 0.126 µM [falling, full curve].

As for `O=C(c1nsc(Cl)c1Cl)N1CCCCC1`, the AC50 is 0.251 µM [rising, full curve].

Take `Cc1ccnc(-n2sc3ccccc3c2=O)n1`: the AC50 was 3.98 µM [falling, single point].

Turning to `CC1CCCCN1C(=O)c1ccc(C(=O)N2CCCCC2C)cc1` (centres undefined), the AC50 was 0.00398 µM [falling, full curve].

`O=C(NCc1ccco1)c1ccc(CS(=O)(=O)Cc2ccc(Cl)cc2)o1`: the AC50 is 1.26 µM [falling, partial curve, poor fit].

In the case of `CCOC(=O)c1ccc(CNC(=O)c2n[nH]c(=O)c3ccccc23)o1`, the concentration at half-maximal activity (AC50) was 10 µM [rising, partial curve].

For `O=c1oc2cc(Br)ccc2n1CSC1=NCCS1`, the AC50 was 10 µM [falling, partial curve].

For the compound `COC(=O)[C@H](Cc1ccccc1)NC(=O)NCCc1ccc(S(N)(=O)=O)cc1`, the AC50 was 5.01 µM [falling, partial curve].

`CCS(=O)(=O)N1CCC(C(=O)NCCc2ccc(OC)c(OC)c2)CC1`: the AC50 is 10 µM [falling, partial curve].

`CCOC(=O)CSc1nnc(CNc2nc(-c3ccccc3)cs2)n1C`: the AC50 was 0.00794 µM [falling, full curve, poor fit].

For the compound `CCCSc1nnc2nc3c(nn12)c1ccccc1n3C`, the AC50 is 2.51 µM [rising, partial curve].

`Cc1cc2n(n1)C(c1ccccc1Cl)Nc1ccccc1-2` (centres undefined): the AC50 is 10 µM [rising, single point].

For the compound `COc1ccc(-c2nc3cnc(Nc4ccccc4)nc3n(CCC#N)c2=O)cc1`, the AC50 was 0.501 µM [rising, full curve].

Regarding `CN(C(=O)COc1nnc(-c2cccs2)c(-c2cccs2)n1)c1ccccc1`, the AC50 is 0.126 µM [rising, full curve, poor fit].

As for `O=S(=O)(NCc1csc(-c2ccccc2)n1)c1ccc(Cl)s1`, the AC50 was 20 µM [falling, single point].

With `Cc1nc2n(n1)CC(O)CS2` (centres undefined), the AC50 is 25.1 µM [falling, single point].

Regarding `Cc1cccc(N(CC(=O)Nc2c(C)n(C)n(-c3ccccc3)c2=O)S(C)(=O)=O)c1C`, the AC50 is 1 µM [rising, single point].

As for `Cc1sc2nc(SCC(=O)N(C)C)[nH]c(=O)c2c1C`, the AC50 was 15.8 µM [rising, single point].

As to `O=c1c2c3c(sc2nc2n1CCCCC2)CCCC3`, the AC50 was 15.8 µM [rising, partial curve].

On to `c1ccc2c(c1)C(=NCC1CCCO1)NC2=NCC1CCCO1` (centres undefined), for which the concentration at half-maximal activity (AC50) was 12.6 µM [falling, single point].

As for `CC(=O)OC1c2c(ccc3ccc(=O)oc23)OC(C)(C)C1OC(=O)CC(C)C` (centres undefined), the AC50 was 12.6 µM [rising, single point].

As for `CCCn1c(SCC(=O)Nc2ccccc2N2CCCCC2)nc2c1c(=O)n(C)c(=O)n2C`, the AC50 was 6.31 µM [rising, partial curve].

Turning to `CC(C)n1c(SCCCc2ccccc2)nc2c1c(=O)[nH]c(=O)n2C`, the AC50 is 5.01 µM [rising, partial curve].

For the compound `O=C(CCCSc1nnc(-c2cccs2)n1CC1CCCO1)c1ccccc1` (centres undefined), the AC50 was 5.01 µM [rising, single point].

Regarding `COC(=O)Nc1ccc2c(c1)N(C(=O)CCN1CCN3CCCC3C1)c1ccccc1CC2` (centres undefined), the AC50 is 3.16 µM [falling, full curve, poor fit].

As to `CC(C)C(OC(=O)CN1C(=O)COc2ccccc21)C(=O)NC1CCCC1` (centres undefined), the AC50 is 25.1 µM [falling, single point].

For `COc1ccc(C(=O)CC(=O)O)c2c1C=CC(C)(C)O2`, the AC50 is 0.398 µM [falling, full curve].

In the case of `CC(=O)N1CCc2cc(S(=O)(=O)NCCCN3CCN(Cc4ccccc4)CC3)ccc21`, the AC50 is 7.94 µM [rising, single point].

Consider `CCN(Cc1ccccc1)C(=O)Cn1c(=O)n(CC(=O)NCc2ccco2)c(=O)c2sccc21`, for which the AC50 was 0.316 µM [falling, partial curve, poor fit].

On to `CCN(Cc1nc2ccccc2c(=O)[nH]1)Cc1cc(=O)oc2cc(C)c(C)cc12`, for which the AC50 is 12.6 µM [rising, partial curve].

`CCCCS(=O)(=O)NC1=NCN(CCO)CN1`: the AC50 was 0.0794 µM [falling, full curve, poor fit].

`CCCS(=O)(=O)N1CCC(C(=O)N2CCc3ccccc3C2)CC1`: the AC50 was 0.00794 µM [falling, full curve, poor fit].

Regarding `C/C=C/CSc1nc2c(c(=O)[nH]c(=O)n2C)n1Cc1ccc(C)cc1`, the AC50 was 10 µM [rising, partial curve].

Take `O=c1c(=O)n(O)c2ccccc2n1O`: the AC50 is 2.51 µM [falling, partial curve].

Turning to `Cc1sc2ncnc(SCC#N)c2c1C`, the AC50 is 10 µM [rising, partial curve].

As for `COc1ccc(-c2cc(-c3ccccc3)nc(N3CCCC3)n2)cc1OC`, the AC50 was 3.16 µM [rising, partial curve].

In the case of `COc1cccc(Nc2ncc3nc(C)c(=O)n(-c4ccccc4)c3n2)c1`, the AC50 was 12.6 µM [rising, single point].

As for `Cc1cccc(-c2nc3ccccc3c3nncn23)c1`, the AC50 was 15.8 µM [rising, partial curve].

For the compound `COC(=O)CN(c1ccc(C)cc1)S(=O)(=O)c1ccc2c(c1)n(C)c(=O)c(=O)n2C`, the AC50 is 0.126 µM [falling, full curve].

Regarding `CN(Cc1ccccc1)C(=O)CCC(=O)N(C)Cc1ccccc1`, the AC50 is 0.794 µM [rising, partial curve].

Regarding `CC(C)c1nc(SCC(=O)Nc2ccc3c(c2)OCCO3)c2c(=O)n(C)c(=O)n(C)c2n1`, the AC50 is 2 µM [rising, partial curve].

`Cn1c(=O)c2c(-c3ccccc3)n(-n3cnnc3)cc2n(C)c1=O`: the AC50 was 25.1 µM [falling, single point].

On to `CC1S/C(=C(\C#N)C(N)=O)N(c2ccc(F)cc2)C1=O` (centres undefined), for which the AC50 was 5.01 µM [falling, single point].

Usually AC50 stands for the concentration at which the activity in the assay is half-maximal.
